The list shows a part of the results.
What was measured:
Assay in all cases: glycan array binding signal (z-score within array); higher = stronger binding
Conditions in all cases: glycan notation: IUPAC condensed, linker removed
[1] = target: Neu5Ac(a2-3)Gal(b1-4)GlcNAc(b1-3)Gal(b1-4)GlcNAc(b1-2)Man(a1-3)[Neu5Ac(a2-3)Gal(b1-4)GlcNAc(b1-3)Gal(b1-4)GlcNAc(b1-2)Man(a1-6)]Man(b1-4)GlcNAc(b1-4)GlcNAc
Method in brief: (§1)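 Columns mapping to the same glycan were averaged after glycan names were converted to IUPAC-condensed notation. The data come from 3228 arrays in the Consortium for Functional Glycomics database, limited to those with an available protein sequence. Binding is reported as a within-array Z-score averaged across arrays of one protein sequence and across linkers.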

[2] = target: Neu5Ac(a2-3)Gal(b1-4)GlcNAc(b1-3)Gal(b1-4)GlcNAc(b1-3)Gal(b1-4)GlcNAc
Method in brief: as §1

[3] = target: Neu5Ac(a2-3)Gal(b1-4)GlcNAc(b1-3)Gal(b1-4)GlcNAc(b1-3)Gal(b1-4)GlcNAc(b1-2)Man(a1-3)[Neu5Ac(a2-3)Gal(b1-4)GlcNAc(b1-3)Gal(b1-4)GlcNAc(b1-3)Gal(b1-4)GlcNAc(b1-2)Man(a1-6)]GalNAc
Method in brief: as §1

[4] = target: Neu5Ac(a2-3)Gal(b1-4)GlcNAc(b1-3)Gal(b1-4)GlcNAc(b1-3)GalNAc
Method in brief: as §1

[5] = target: Neu5Ac(a2-3)Gal(b1-4)GlcNAc(b1-3)Gal(b1-4)GlcNAc(b1-3)[Neu5Ac(a2-3)Gal(b1-4)GlcNAc(b1-3)Gal(b1-4)GlcNAc(b1-6)]GalNAc
Method in brief: as §1

[6] = target: Neu5Ac(a2-3)Gal(b1-4)GlcNAc(b1-3)Gal(b1-4)GlcNAc(b1-6)[Gal(b1-3)]GalNAc
Method in brief: as §1

[7] = target: Neu5Ac(a2-3)Gal(b1-4)GlcNAc(b1-3)Gal(b1-4)[Fuc(a1-3)]GlcNAc
Method in brief: as §1

[8] = target: Neu5Ac(a2-3)Gal(b1-4)GlcNAc(b1-3)GalNAc
Method in brief: as §1

[9] = target: Neu5Ac(a2-3)Gal(b1-4)GlcNAc(b1-3)[Neu5Ac(a2-3)Gal(b1-4)GlcNAc(b1-6)]GalNAc
Method in brief: as §1

[10] = target: Neu5Ac(a2-3)Gal(b1-4)GlcNAc(b1-6)GalNAc
Method in brief: as §1

[11] = target: Neu5Ac(a2-3)Gal(b1-4)GlcNAc(b1-6)[Gal(b1-3)]GalNAc
Method in brief: as §1

[12] = target: Neu5Ac(a2-3)Gal(b1-4)GlcNAc(b1-6)[Neu5Ac(a2-3)Gal(b1-3)]GalNAc
Method in brief: as §1

[13] = target: Neu5Ac(a2-3)Gal(b1-4)GlcNAc6S
Method in brief: as §1

[14] = target: Neu5Ac(a2-3)Gal(b1-4)[Fuc(a1-3)]GlcNAc
Method in brief: as §1

[15] = target: Neu5Ac(a2-3)Gal(b1-4)[Fuc(a1-3)]GlcNAc(b1-2)Man
Method in brief: as §1

[16] = target: Neu5Ac(a2-3)Gal(b1-4)[Fuc(a1-3)]GlcNAc(b1-3)Gal
Method in brief: as §1

[17] = target: Neu5Ac(a2-3)Gal(b1-4)[Fuc(a1-3)]GlcNAc(b1-3)Gal(b1-4)GlcNAc
Method in brief: as §1

[18] = target: Neu5Ac(a2-3)Gal(b1-4)[Fuc(a1-3)]GlcNAc(b1-3)Gal(b1-4)[Fuc(a1-3)]GlcNAc(b1-3)Gal(b1-4)[Fuc(a1-3)]GlcNAc
Method in brief: as §1

[19] = target: Neu5Ac(a2-3)Gal(b1-4)[Fuc(a1-3)]GlcNAc(b1-3)GalNAc
Method in brief: as §1

[20] = target: Neu5Ac(a2-3)Gal(b1-4)[Fuc(a1-3)]GlcNAc(b1-6)[Gal(b1-3)]GalNAc
Method in brief: as §1

[21] = target: Neu5Ac(a2-3)Gal(b1-4)[Fuc(a1-3)]GlcNAc(b1-6)[Neu5Ac(a2-3)Gal(b1-3)]GalNAc
Method in brief: as §1

[22] = target: Neu5Ac(a2-3)Gal(b1-4)[Fuc(a1-3)]GlcNAc6S
Method in brief: as §1

[23] = target: Neu5Ac(a2-3)Gal6S(b1-4)GlcNAc
Method in brief: as §1

[24] = target: Neu5Ac(a2-3)Gal6S(b1-4)[Fuc(a1-3)]GlcNAc
Method in brief: as §1

Neu5Ac(a2-3)GalNAc = target: Neu5Ac(a2-3)GalNAc
Method in brief: as §1

[25] = target: Neu5Ac(a2-3)GalNAc(b1-4)GlcNAc
Method in brief: as §1

[26] = target: Neu5Ac(a2-3)[GalNAc(b1-4)]Gal(b1-4)Glc
Method in brief: as §1

[27] = target: Neu5Ac(a2-3)[GalNAc(b1-4)]Gal(b1-4)GlcNAc
Method in brief: as §1

[28] = target: Neu5Ac(a2-3)[GalNAc(b1-4)]Gal(b1-4)GlcNAc(b1-3)GalNAc
Method in brief: as §1

[29] = target: Neu5Ac(a2-3)[Neu5Ac(a2-6)]GalNAc
Method in brief: as §1

Neu5Ac(a2-6)Gal = target: Neu5Ac(a2-6)Gal
Method in brief: as §1

[30] = target: Neu5Ac(a2-6)Gal(b1-3)GlcNAc(b1-3)[Gal(b1-4)GlcNAc(b1-6)]Gal(b1-4)Glc
Method in brief: as §1

Neu5Ac(a2-6)Gal(b1-4)Glc = target: Neu5Ac(a2-6)Gal(b1-4)Glc
Method in brief: as §1

[31] = target: Neu5Ac(a2-6)Gal(b1-4)GlcNAc
Method in brief: as §1

[32] = target: Neu5Ac(a2-6)Gal(b1-4)GlcNAc(b1-2)Man
Method in brief: as §1

[33] = target: Neu5Ac(a2-6)Gal(b1-4)GlcNAc(b1-2)Man(a1-3)Man(b1-4)GlcNAc(b1-4)GlcNAc
Method in brief: as §1

[34] = target: Neu5Ac(a2-6)Gal(b1-4)GlcNAc(b1-2)Man(a1-3)[Gal(b1-4)GlcNAc(b1-2)Man(a1-6)]Man(b1-4)GlcNAc(b1-4)GlcNAc
Method in brief: as §1

[35] = target: Neu5Ac(a2-6)Gal(b1-4)GlcNAc(b1-2)Man(a1-3)[GlcNAc(b1-2)Man(a1-6)]Man(b1-4)GlcNAc(b1-4)GlcNAc
Method in brief: as §1

B1: Epa21 (Candida glabrata) (protein)
chain: MGSSHHHHHHSSGLVPRGSHMASTPNIESHPQGCSPVDTSGIKPGLKMDLYRFPITPPGTGCWSWDWLTVTPDFPRSGYWKWPKIAEVDGVVGPLHLDSGHPTCDPLTSVLPHGFNYLQSITTTNFTMVLHGYFVPKQSGKYTFEFKADDALLLNLGAGNAFSCCDYNNSQYNQGEYLAYAIWSKNNQTATLYLEKGIYYPIRVFYHNRCCGAYMDVVYYFNDSPIPNRDFSGLLFSIPDSDSCDANI
[1]
  glycan array binding signal (z-score): 0.389
[2]
  glycan array binding signal (z-score): 0.623
[3]
  glycan array binding signal (z-score): 1.05
[4]
  glycan array binding signal (z-score): 3.03
[5]
  glycan array binding signal (z-score): 1.32
[6]
  glycan array binding signal (z-score): 0.188
[7]
  glycan array binding signal (z-score): 0.46
[8]
  glycan array binding signal (z-score): 0.017
[9]
  glycan array binding signal (z-score): 0.888
[10]
  glycan array binding signal (z-score): -0.355
[11]
  glycan array binding signal (z-score): 0.764
[12]
  glycan array binding signal (z-score): -0.674
[13]
  glycan array binding signal (z-score): 0.644
[14]
  glycan array binding signal (z-score): -0.539
[15]
  glycan array binding signal (z-score): -0.448
[16]
  glycan array binding signal (z-score): -0.526
[17]
  glycan array binding signal (z-score): 0.422
[18]
  glycan array binding signal (z-score): -0.235
[19]
  glycan array binding signal (z-score): 1.87
[20]
  glycan array binding signal (z-score): 2.11
[21]
  glycan array binding signal (z-score): 1.81
[22]
  glycan array binding signal (z-score): 0.564
[23]
  glycan array binding signal (z-score): -0.217
[24]
  glycan array binding signal (z-score): -0.818
Neu5Ac(a2-3)GalNAc
  glycan array binding signal (z-score): -0.485
[25]
  glycan array binding signal (z-score): 0.876
[26]
  glycan array binding signal (z-score): -0.854
[27]
  glycan array binding signal (z-score): -0.863
[28]
  glycan array binding signal (z-score): -0.061
[29]
  glycan array binding signal (z-score): 0.567
Neu5Ac(a2-6)Gal
  glycan array binding signal (z-score): -0.155
[30]
  glycan array binding signal (z-score): -0.825
Neu5Ac(a2-6)Gal(b1-4)Glc
  glycan array binding signal (z-score): -0.472
[31]
  glycan array binding signal (z-score): -0.803
[32]
  glycan array binding signal (z-score): -0.212
[33]
  glycan array binding signal (z-score): 0.044
[34]
  glycan array binding signal (z-score): -0.438
[35]
  glycan array binding signal (z-score): -0.421
